US20130224285A1, “ESTROGEN RECEPTOR ALPHA POLYPEPTIDE SEQUENCE, DIAGNOSTIC AND THERAPEUTIC APPLICATIONS THEREOF” (Universite Libre de Buxelles, priority 2010, published 2013)
For at least one compound, name, drawing or mass did not settle the structure.

Test system: MCF-7 cells
Assay: Immunoprecipitation (G20 antibody) and Western blot of the endogenous ER-alpha degradation peptide in conditioned medium of treated MCF-7 cells
Type: cell-based, human
Details: conditioned medium of MCF-7 cells; estradiol 10^-8M, diethylstibestrol 10^-8M, 4-OHTamoxifen 10^-7M, Fulvestrant 10^-7M; vs control; FIG. 3; preliminary
Procedure: MCF-7 breast cancer cell line was cultured for 48 hours in EMEM without Phenol-red, comprising 2 mM glutamine, 100 U/ml penicilline and 100 μg/ml streptomycine, supplemented with 10% steroid-free fetal calf serum. After three washing steps with serum/antibiotic-free EMEM without Phenol-red, the cells were cultured for 4 hours in the presence or absence of the E2 ligand dissolved in serum/antibiotic-free EMEM without Phenol-red, containing only 2 mM glutamine.
After preclearing with 100 μl (50%) immobilised protein G on agarose beads (UltraLink®, Pierce) (2 hours at 4° C.) conditioned media (or EMEM for the negative control) were incubated with antibody G20 (Santa-Cruz) (except for the negative control) overnight at 4° C. After antibody capturing in 100 μl (50%) immobolised proteine G, the resin is heated to 85° C. for 5 minutes in Laemmli without colorant. The protein samples are subsequently separated on a Tris-Tricine 10% (Invitrogen) gel and the peptides are transferred to nitro-cellulose membranes (15% methanol; semi-dry transfer (BioRad apparatus; 24 V; 0.15 mA, 15 minutes). After blocking with 5% milk for 30 minutes, the proteins are detected with chemiluminescence (primary antibody: G20 (1/500; 2 hours); secondary antibody: anti-rabbit (Pierce; 1/6000; 1 hour). […]

C[C@]12CC[C@@H]3c4ccc(O)cc4CC[C@H]3[C@@H]1CC[C@@H]2O [estradiol]
production of the endogenous ER-alpha degradation product/peptide: increases the production
